The reference is the same well before dosing, and untreated signal decays as well.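 Fibroblast labels denote human fibroblasts, mainly primary ones from uterus (C12385, HUF), lung (H6013), bone (Hs27A), adrenal (HADF) and skin (WS1), plus mammary HMF and breast cancer-associated Hs343T. Cancer cells are basal-like or mesenchymal-like triple-negative breast cancer lines. A hit is a response shift exceeding 3x replicate standard deviation. The tissue of the other fibroblasts is not given here.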
Test system: BT20
Test: relative JC-1 red fluorescence (viability) vs pre-drug, coculture with fibroblast (fraction); higher = more viable cancer cells
Experimental: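 JC-1 labelled TNBC cells cocultured 1:1 (1,500 cells each) with CellTrace Violet stained primary or stromal fibroblasts in 384-well plates in FluoroBrite medium, treated with one of 42 anticancer drugs at 0.1, 1, 10 or 100 uM. JC-1 red fluorescence (mitochondrial integrity in cancer cells only) was read by plate reader every 8 h for 72 h. Values are normalised to each well's pre-drug value. The stock of one drug was tenfold lower, so its dose labels may be too high.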

N#Cc1ccc(C(c2ccc(C#N)cc2)n2cncn2)cc1 [Letrozole]
relative JC-1 red fluorescence
Conditions	8 h	16 h	24 h	32 h	40 h	48 h	56 h	64 h	72 h
0.1 µM, coculture fibroblast: C12385	0.923	0.816	0.7745	0.709	0.648	0.613	0.582	0.561	0.545
0.1 µM, coculture fibroblast: H6013	0.9168	0.855	0.797	0.76	0.709	0.679	0.671	0.646	0.623
0.1 µM, coculture fibroblast: H6019	0.844	0.787	0.768	0.713	0.67	0.65	0.621	0.6	0.586
0.1 µM, coculture fibroblast: H6076	0.976	0.881	0.803	0.785	0.752	0.732	0.721	0.716	0.697
0.1 µM, coculture fibroblast: H6231	0.834	0.926	0.7869	0.722	0.684	0.6304	0.5945	0.5639	0.539
0.1 µM, coculture fibroblast: HADF	0.937	0.887	0.834	0.797	0.759	0.721	0.7	0.694	0.658
0.1 µM, coculture fibroblast: HCFa	0.91	0.867	0.818	0.759	0.715	0.674	0.644	0.614	0.582
0.1 µM, coculture fibroblast: HCPF	0.9926	0.877	0.795	0.737	0.685	0.643	0.602	0.592	0.558
0.1 µM, coculture fibroblast: HHSteC	0.941	0.85	0.817	0.735	0.68	0.639	0.612	0.585	0.564
0.1 µM, coculture fibroblast: HMF	0.9	0.882	0.757	0.6938	0.6422	0.588	0.543	0.508	0.472
0.1 µM, coculture fibroblast: HPFa	0.937	0.811	0.797	0.702	0.67	0.62	0.592	0.554	0.5
0.1 µM, coculture fibroblast: HUF	0.925	0.802	0.767	0.682	0.616	0.563	0.534	0.512	0.492
0.1 µM, coculture fibroblast: Hs5	0.893	0.916	0.824	0.764	0.706	0.657	0.612	0.576	0.54
0.1 µM, coculture fibroblast: Hs27A	0.807	0.786	0.882	0.887	0.8385	0.812	0.787	0.751	0.701
0.1 µM, coculture fibroblast: Hs343T	0.918	0.875	0.743	0.6789	0.615	0.57	0.529	0.504	0.475
0.1 µM, coculture fibroblast: WS1	0.868	0.762	0.716	0.65	0.587	0.555	0.527	0.505	0.491
1 µM, coculture fibroblast: C12385	0.9	0.794	0.743	0.687	0.627	0.59	0.552	0.534	0.519
1 µM, coculture fibroblast: H6013	0.9485	0.866	0.82682	0.7867	0.73246	0.711	0.6992	0.6831	0.6637
1 µM, coculture fibroblast: H6019	0.869	0.816	0.816	0.774	0.741	0.726	0.696	0.68	0.661
1 µM, coculture fibroblast: H6076	0.875	0.906	0.837	0.791	0.752	0.729	0.702	0.7	0.68
1 µM, coculture fibroblast: H6231	0.872	0.906	0.801	0.727	0.662	0.6107	0.577	0.55	0.504
1 µM, coculture fibroblast: HADF	0.9953	0.913	0.894	0.854	0.821	0.787	0.77	0.762	0.735
1 µM, coculture fibroblast: HCFa	0.961	0.914	0.913	0.875	0.839	0.807	0.794	0.787	0.77
1 µM, coculture fibroblast: HCPF	0.84	0.8943	0.8138	0.765	0.718	0.672	0.622	0.602	0.553
1 µM, coculture fibroblast: HHSteC	0.92	0.834	0.813	0.735	0.67941	0.6461	0.6219	0.6027	0.57052
1 µM, coculture fibroblast: HMF	0.866	0.887	0.782	0.733	0.691	0.645	0.607	0.573	0.545
1 µM, coculture fibroblast: HPFa	0.9458	0.851	0.838	0.747	0.714	0.666	0.64	0.606	0.548
1 µM, coculture fibroblast: HUF	0.901	0.7677	0.746	0.671	0.615	0.574	0.557	0.537	0.526
1 µM, coculture fibroblast: Hs5	0.949	0.8944	0.83	0.794	0.756	0.718	0.688	0.658	0.622
1 µM, coculture fibroblast: Hs27A	0.802	0.907	0.896	0.877	0.84	0.826	0.805	0.78	0.729
1 µM, coculture fibroblast: Hs343T	0.896	0.8563	0.715	0.64	0.569	0.509	0.439	0.413	0.372
1 µM, coculture fibroblast: WS1	0.8612	0.7683	0.731	0.659	0.599	0.579	0.548	0.521	0.513
10 µM, coculture fibroblast: C12385	0.873	0.837	0.801	0.789	0.728	0.7	0.668	0.647	0.629
10 µM, coculture fibroblast: H6013	0.942	0.882	0.836	0.787	0.737	0.707	0.704	0.689	0.668
10 µM, coculture fibroblast: H6019	0.846	0.772	0.754	0.691	0.636	0.607	0.564	0.532	0.506
10 µM, coculture fibroblast: H6076	0.809	0.937	0.844	0.818	0.794	0.769	0.7646	0.7559	0.736
10 µM, coculture fibroblast: H6231	0.765	0.897	0.805	0.73	0.686	0.626	0.575	0.54764	0.5189
10 µM, coculture fibroblast: HADF	0.9754	0.916	0.834	0.80896	0.7707	0.725	0.711	0.6896	0.652
10 µM, coculture fibroblast: HCFa	0.9603	0.924	0.875	0.833	0.797	0.768	0.741	0.717	0.699
10 µM, coculture fibroblast: HCPF	0.945	0.922	0.861	0.817	0.774	0.724	0.6774	0.6569	0.619
10 µM, coculture fibroblast: HHSteC	0.918	0.865	0.802	0.719	0.673	0.632	0.605	0.574	0.548
10 µM, coculture fibroblast: HMF	0.797	0.9381	0.8089	0.722	0.669	0.616	0.568	0.523	0.484
10 µM, coculture fibroblast: HPFa	0.954	0.9162	0.912	0.8286	0.79646	0.7492	0.7133	0.677	0.623
10 µM, coculture fibroblast: HUF	0.9174	0.8664	0.846	0.771	0.724	0.689	0.663	0.649	0.632
10 µM, coculture fibroblast: Hs5	0.953	0.899	0.885	0.859	0.833	0.813	0.805	0.783	0.774
10 µM, coculture fibroblast: Hs27A	0.808	0.948	0.885	0.87	0.805	0.764	0.742	0.707	0.655
10 µM, coculture fibroblast: Hs343T	0.789	0.9227	0.804	0.733	0.679	0.62	0.559	0.526	0.487
10 µM, coculture fibroblast: WS1	0.846	0.775	0.726	0.668	0.599	0.568	0.531	0.492	0.475
100 µM, coculture fibroblast: C12385	0.896	0.819	0.771	0.713	0.656	0.619	0.587	0.559	0.536
100 µM, coculture fibroblast: H6013	0.9611	0.905	0.918	0.927	0.913	0.914	0.922	0.878	0.808
100 µM, coculture fibroblast: H6019	0.875	0.835	0.782	0.724	0.679	0.654	0.611	0.58	0.556
100 µM, coculture fibroblast: H6076	0.852	0.9249	0.843	0.816	0.772	0.741	0.716	0.704	0.678
100 µM, coculture fibroblast: H6231	0.824	0.9617	0.8535	0.802	0.754	0.704	0.672	0.646	0.614
100 µM, coculture fibroblast: HADF	0.897	0.9366	0.825	0.822	0.7852	0.748	0.72	0.697	0.66
100 µM, coculture fibroblast: HCFa	0.9358	0.867	0.823	0.768	0.7112	0.6863	0.65	0.633	0.597
100 µM, coculture fibroblast: HCPF	0.939	0.895	0.817	0.762	0.716	0.678	0.6301	0.614	0.574
100 µM, coculture fibroblast: HHSteC	0.951	0.889	0.911	0.849	0.811	0.78	0.756	0.735	0.706
100 µM, coculture fibroblast: HMF	0.882	0.907	0.8004	0.74386	0.6978	0.661	0.627	0.599	0.565
100 µM, coculture fibroblast: HPFa	0.954	0.866	0.853	0.773	0.734	0.685	0.652	0.617	0.56
100 µM, coculture fibroblast: HUF	0.95	0.909	0.895	0.83	0.799	0.756	0.734	0.725	0.715
100 µM, coculture fibroblast: Hs5	0.803	0.943	0.843	0.782	0.737	0.689	0.644	0.607	0.58
100 µM, coculture fibroblast: Hs27A	0.806	0.793	0.939	0.956	0.9052	0.8811	0.8487	0.806	0.757
100 µM, coculture fibroblast: Hs343T	0.99649	0.886	0.79	0.7389	0.686	0.6441	0.5842	0.553	0.5115
100 µM, coculture fibroblast: WS1	0.8922	0.8282	0.752	0.693	0.629	0.5911	0.542	0.499	0.469

Source: the supplement of paper PMC6078165
